Literature values, collected in US10098909B2 (UNIVERSITY OF SOUTH FLORIDA, priority 2016, dated 2018).
At least one compound was matched to its structure with a doubt left.

Test system: GSK3
Details: adult Fmr1 KO mice, acute or chronic treatment; cited from earlier work

In the case of `[Li]` [lithium], the “impaired serine-phosphorylation of GSK3” value is listed as “corrected”.
